Results taken from publication doi:10.1101/2024.07.29.603210.
Read-outs that look alike come from different tables or passages of the source. Results are given in words; binding and its absence hold for the method and conditions named. In cells and extracts the contact can be indirect. Here binding means that the protein was enriched with, or labelled near, the bait; the list need not be complete. Where a sequence is shown, tags or fusion partners need not be part of it.

Protein sequences, listed by entry. Tags and fused reporters are not part of them.
UniProt Q99KN2: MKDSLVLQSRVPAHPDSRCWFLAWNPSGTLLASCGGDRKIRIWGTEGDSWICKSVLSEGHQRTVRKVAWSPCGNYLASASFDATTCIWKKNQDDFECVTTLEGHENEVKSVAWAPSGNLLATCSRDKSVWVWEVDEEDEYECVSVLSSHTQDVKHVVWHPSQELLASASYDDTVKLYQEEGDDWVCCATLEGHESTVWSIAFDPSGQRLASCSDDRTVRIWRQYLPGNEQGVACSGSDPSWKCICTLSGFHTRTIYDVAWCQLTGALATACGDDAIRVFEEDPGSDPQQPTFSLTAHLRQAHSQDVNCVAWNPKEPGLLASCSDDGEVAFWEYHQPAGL

T1: mitoNEET tagged with HA in its C-terminus (mouse, full length) (mouse) (UniProt Q91WS0)
T1 sequence: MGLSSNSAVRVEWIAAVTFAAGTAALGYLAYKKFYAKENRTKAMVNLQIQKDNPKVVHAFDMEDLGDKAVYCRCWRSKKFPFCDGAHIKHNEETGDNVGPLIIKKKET


Key:
[1] = biological target: T1, mitoNEET tagged with HA in its C-terminus (mouse, full length) (mouse); assay: affinity purification with mass spectrometry
[2] = biological target: T1, mitoNEET tagged with HA in its C-terminus (mouse, full length) (mouse); assay: affinity purification with mass spectrometry; remark: listed apart in the source

Row | binding [1] | binding [2] | Molecule
1 | binds | – | Ciao1 (from UniProt Q99KN2 1-339)
2 | – | binds | prohibitin (protein, UniProt P67778 1-272) MAAKVFESIGKFGLALAVAGGVVNSALYNVDAGHRAVIFDRFRGVQDIVVGEGTHFLIPWVQKPIIFDCRSRPRNVPVITGSKDLQNVNITLRILFRPVASQLPRIYTSIGEDYDERVLPSITTEILKSVVARFDAGELITQRELVSRQVSDDLTERAATFGLILDDVSLTHLTFGKEFTEAVEAKQVAQQEAERARFVVEKAEQQKKAAIISAEGDSKAAELIANSLATAGDGLIELRKLEAAEDIAYQLSRSRNITYLPAGQSVLLQLPQ
